Reference: the supplement of paper PMC10849652
Some of the results follow.

Sequences of proteins named here, by UniProt entry; tags and fusion partners are left off. A change or cut given only in a name is not applied to a line headed by its entry.
UniProt P32119: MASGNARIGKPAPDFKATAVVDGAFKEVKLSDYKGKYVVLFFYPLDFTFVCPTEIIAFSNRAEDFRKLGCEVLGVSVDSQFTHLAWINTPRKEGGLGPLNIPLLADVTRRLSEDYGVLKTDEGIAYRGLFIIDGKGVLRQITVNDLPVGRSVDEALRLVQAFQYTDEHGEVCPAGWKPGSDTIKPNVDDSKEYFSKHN
UniProt Q9Y520: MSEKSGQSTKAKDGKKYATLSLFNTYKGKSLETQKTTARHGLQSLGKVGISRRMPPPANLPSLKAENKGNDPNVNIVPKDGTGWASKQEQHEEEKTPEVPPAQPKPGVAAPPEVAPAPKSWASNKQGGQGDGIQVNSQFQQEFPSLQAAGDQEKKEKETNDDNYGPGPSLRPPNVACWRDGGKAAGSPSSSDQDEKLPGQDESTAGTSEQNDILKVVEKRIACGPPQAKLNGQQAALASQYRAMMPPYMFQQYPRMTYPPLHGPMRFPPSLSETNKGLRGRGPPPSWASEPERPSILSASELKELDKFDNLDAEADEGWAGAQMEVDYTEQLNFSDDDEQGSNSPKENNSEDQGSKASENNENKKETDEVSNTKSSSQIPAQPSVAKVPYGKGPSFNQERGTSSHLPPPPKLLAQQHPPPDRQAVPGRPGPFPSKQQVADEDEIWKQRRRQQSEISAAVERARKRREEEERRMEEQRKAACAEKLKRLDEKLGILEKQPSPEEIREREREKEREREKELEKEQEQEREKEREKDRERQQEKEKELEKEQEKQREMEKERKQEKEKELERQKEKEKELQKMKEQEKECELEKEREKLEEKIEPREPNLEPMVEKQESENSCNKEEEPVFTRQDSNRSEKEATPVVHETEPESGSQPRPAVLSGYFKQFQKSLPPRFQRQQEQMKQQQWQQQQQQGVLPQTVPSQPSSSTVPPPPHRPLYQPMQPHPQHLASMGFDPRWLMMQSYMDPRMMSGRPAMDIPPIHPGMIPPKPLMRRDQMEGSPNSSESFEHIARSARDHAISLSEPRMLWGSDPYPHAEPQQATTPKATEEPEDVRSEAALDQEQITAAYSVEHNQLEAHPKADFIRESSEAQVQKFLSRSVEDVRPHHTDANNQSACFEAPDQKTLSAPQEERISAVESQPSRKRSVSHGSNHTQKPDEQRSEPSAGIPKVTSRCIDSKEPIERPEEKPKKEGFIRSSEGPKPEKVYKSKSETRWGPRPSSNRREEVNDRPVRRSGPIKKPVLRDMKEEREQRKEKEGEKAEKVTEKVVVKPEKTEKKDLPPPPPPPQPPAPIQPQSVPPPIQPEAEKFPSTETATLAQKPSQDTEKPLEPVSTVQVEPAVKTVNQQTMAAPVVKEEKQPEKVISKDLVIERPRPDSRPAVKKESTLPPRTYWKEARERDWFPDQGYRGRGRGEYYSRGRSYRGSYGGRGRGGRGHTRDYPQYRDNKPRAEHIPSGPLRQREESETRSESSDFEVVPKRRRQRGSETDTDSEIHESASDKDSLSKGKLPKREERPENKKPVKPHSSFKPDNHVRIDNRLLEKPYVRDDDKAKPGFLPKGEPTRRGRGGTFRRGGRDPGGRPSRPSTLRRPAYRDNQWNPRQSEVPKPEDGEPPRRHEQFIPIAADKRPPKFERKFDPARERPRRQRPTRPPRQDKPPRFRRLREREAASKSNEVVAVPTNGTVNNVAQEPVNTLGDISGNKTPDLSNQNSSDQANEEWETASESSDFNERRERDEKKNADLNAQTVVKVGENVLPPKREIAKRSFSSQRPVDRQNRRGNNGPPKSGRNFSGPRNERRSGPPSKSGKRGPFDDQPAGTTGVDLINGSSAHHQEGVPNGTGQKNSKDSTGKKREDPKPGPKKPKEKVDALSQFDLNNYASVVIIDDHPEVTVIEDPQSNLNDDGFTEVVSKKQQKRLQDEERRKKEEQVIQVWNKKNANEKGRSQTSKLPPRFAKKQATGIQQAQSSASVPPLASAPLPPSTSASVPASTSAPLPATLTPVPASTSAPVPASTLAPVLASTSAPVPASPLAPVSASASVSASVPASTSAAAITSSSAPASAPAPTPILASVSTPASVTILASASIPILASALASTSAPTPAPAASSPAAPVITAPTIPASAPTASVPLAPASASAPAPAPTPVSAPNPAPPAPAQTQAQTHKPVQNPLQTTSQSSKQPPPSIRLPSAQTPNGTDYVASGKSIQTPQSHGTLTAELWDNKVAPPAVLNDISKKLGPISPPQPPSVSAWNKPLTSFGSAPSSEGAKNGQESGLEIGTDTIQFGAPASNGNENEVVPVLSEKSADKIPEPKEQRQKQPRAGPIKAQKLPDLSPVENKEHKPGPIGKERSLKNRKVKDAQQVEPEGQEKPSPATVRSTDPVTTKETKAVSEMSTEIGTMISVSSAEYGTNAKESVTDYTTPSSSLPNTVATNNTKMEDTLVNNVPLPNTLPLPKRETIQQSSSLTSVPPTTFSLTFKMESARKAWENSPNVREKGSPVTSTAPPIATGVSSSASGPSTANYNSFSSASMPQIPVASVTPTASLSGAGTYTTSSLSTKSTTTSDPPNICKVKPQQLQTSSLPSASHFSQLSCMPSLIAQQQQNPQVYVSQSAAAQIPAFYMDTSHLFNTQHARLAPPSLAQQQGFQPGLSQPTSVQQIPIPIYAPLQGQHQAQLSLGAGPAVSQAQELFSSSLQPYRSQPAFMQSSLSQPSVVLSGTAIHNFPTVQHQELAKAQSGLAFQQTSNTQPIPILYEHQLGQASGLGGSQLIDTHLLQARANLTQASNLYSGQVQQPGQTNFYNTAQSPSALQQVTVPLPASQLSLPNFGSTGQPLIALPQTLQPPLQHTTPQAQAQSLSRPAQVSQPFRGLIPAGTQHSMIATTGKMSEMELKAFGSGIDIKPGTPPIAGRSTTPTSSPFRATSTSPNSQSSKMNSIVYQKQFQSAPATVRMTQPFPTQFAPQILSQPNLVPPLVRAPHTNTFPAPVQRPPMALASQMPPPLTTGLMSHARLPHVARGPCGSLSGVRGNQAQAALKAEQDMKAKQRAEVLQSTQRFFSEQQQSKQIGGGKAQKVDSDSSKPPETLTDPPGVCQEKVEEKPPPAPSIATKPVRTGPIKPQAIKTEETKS
UniProt P13727: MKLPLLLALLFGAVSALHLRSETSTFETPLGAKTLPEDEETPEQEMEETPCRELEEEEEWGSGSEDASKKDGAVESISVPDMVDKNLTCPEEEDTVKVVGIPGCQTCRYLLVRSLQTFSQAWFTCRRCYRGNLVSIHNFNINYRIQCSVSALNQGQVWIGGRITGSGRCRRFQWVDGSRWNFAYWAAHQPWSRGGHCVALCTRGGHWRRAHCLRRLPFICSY
UniProt Q9Y255: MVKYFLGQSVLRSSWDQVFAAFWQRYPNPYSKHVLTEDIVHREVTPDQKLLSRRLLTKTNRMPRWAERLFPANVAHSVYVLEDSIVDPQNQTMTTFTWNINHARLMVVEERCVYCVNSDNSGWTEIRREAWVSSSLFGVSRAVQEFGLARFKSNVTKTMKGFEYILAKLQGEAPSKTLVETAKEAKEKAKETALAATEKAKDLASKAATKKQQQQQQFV
UniProt Q9BSG0: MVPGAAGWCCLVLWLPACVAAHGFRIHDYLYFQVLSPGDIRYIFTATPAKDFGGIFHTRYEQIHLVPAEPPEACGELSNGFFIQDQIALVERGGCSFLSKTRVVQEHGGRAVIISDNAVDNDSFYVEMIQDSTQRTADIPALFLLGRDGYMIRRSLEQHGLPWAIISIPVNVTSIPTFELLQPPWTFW

Key:
Test in all cases: log2 fold change, soluble protein after heating vs DMSO (PISA); higher = thermal stabilisation; K562 cells, 10 uM, 30 min; active = over 0.2 and 3.5 SD of the protein, either way, in both replicates (recomputed)
[1] = compound: C1=CC=C(C=C1)[C@H](COC2=CC3=C(C=C2)NC(=O)N3)NC(=O)C4=CC=CN(C4=O)CC5=CC(=C(C=C5)F)F
In short: (§1)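 Thermal stability values are relative to control samples and come from duplicates. They are expressed as log2 fold changes. For measurement, K562 cells (2×10^6 cells/mL) received 10 μM compound for 30 min, and aliquots were heated for 3 min over 48°C-58°C, pooled, and extracted at 4°C in PBS with 0.5% NP-40. Soluble protein, the supernatant after 21,000xg for 90 min, was quantified by TMTpro 16plex LC-MS/MS with equalised channel sums.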

[2] = compound: CC1=C(SC2=C1C(=N[C@H](C3=NN=C(N32)C)CC(=O)N)C4=CC=C(C=C4)Cl)C
In short: as §1

[3] = compound: CC1=C2C(=CC=C1)N=C(N(C2=O)C3=CC=CC=C3C)CN4C=NC5=C(N=CN=C54)N
In short: as §1

[4] = compound: Cc1sc2c(c1C)C(c1ccc(Cl)cc1)=N[C@@H](CC(=O)OC(C)(C)C)c1nnc(C)n1-2
In short: as §1

[5] = compound: c1ccc([C@@H]2C[C@H]2NC2CCNCC2)cc1
In short: as §1

Measured: log2 fold change

PRDX2 (UniProt P32119)
inactive: [1] -0.005 | [2] 0.053 | [3] 0.047 | [4] 0.017 | [5] -0.004

PRRC2C isoform 7 (UniProt Q9Y520)
inactive: [1] 0.058 | [2] -0.156 | [3] -0.115 | [4] 0.106 | [5] 0.033

PRG2 (UniProt P13727)
inactive: [2] 0.01 | [3] 0.037 | [4] 0.118 | [5] 0.074

PRELID1 (UniProt Q9Y255)
inactive: [1] 0.108 | [3] 0.025 | [4] 0.034

PRADC1 (UniProt Q9BSG0)
inactive: [2] -0.154 | [3] 0 | [4] -0.097 | [5] -0.087
